Taken from: PubChem BioAssay AID743121 (NCATS, 2013)
Purpose: 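Genes whose silencing strengthens cell killing by camptothecin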 (primary screen). Cells: MDA-MB-231 cells, a human breast cancer line. Reagent: single siRNA against human genes, 20 nM siRNA (0.8 pmol per well). Duration: 120 h (drug added 48 h after transfection, read 72 h later). Treatment: camptothecin 20 nM (about EC30) for 72 h; vehicle 0.1% DMSO in parallel plates. Detection: 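Cell viability by ATP luminescence (CellTiter-Glo) as % of non-targeting siRNA wells, and the log2 ratio of viability without drug over viability with camptothecin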. Scale: log2 vehicle/camptothecin viability: higher = stronger sensitisation to camptothecin. Rule for the call: 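Each gene scored by redundant siRNA activity (RSA) over its individual siRNA ratios; a gene is called active at p < 0.001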.
The deposit covers about 26,000 reagents; below is a random part of them. Over the whole deposit, 167 (0.63%) were called active. 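Calls are per gene from RSA p-values that are not deposited; an individual active-marked siRNA can sensitise only weakly.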 Entries without a mark were called inactive. The numbers tell different reagents against one gene apart. Not all columns of the deposit are shown.

target gene | siRNA no. | log2 vehicle/camptothecin viability
NCOR2 (nuclear receptor corepressor 2) | 1 | -0.302
NCOR2 (nuclear receptor corepressor 2) | 2 | -0.63
NCOR2 (nuclear receptor corepressor 2) | 3 | 0.118
NCOR2 (nuclear receptor corepressor 2) | 4 | -0.0186
KCNJ1 (potassium inwardly rectifying channel subfamily J member 1) | 1 | -0.474
KCNJ1 (potassium inwardly rectifying channel subfamily J member 1) | 2 | 0.0758
KCNJ1 (potassium inwardly rectifying channel subfamily J member 1) | 3 | 0.104
KCNJ1 (potassium inwardly rectifying channel subfamily J member 1) | 4 | -0.399
CDKN2B (cyclin dependent kinase inhibitor 2B) | 1 | 0.701
CDKN2B (cyclin dependent kinase inhibitor 2B) | 2 | -0.159
CDKN2B (cyclin dependent kinase inhibitor 2B) | 3 | -0.0813
CDKN2B (cyclin dependent kinase inhibitor 2B) | 4 | -0.785
FDXR (ferredoxin reductase) | 1 | -0.389
FDXR (ferredoxin reductase) | 2 | -0.629
FDXR (ferredoxin reductase) | 3 | -0.245
FDXR (ferredoxin reductase) | 4 | -0.209
CCNF (cyclin F) | 1 | 0.32
CCNF (cyclin F) | 2 | 0.239
CCNF (cyclin F) | 3 | -0.181
CCNF (cyclin F) | 4 | -0.411
SNX4 (sorting nexin 4) | 1 | 0.00461
SNX4 (sorting nexin 4) | 2 | 0.296
SNX4 (sorting nexin 4) | 3 | -0.558
SNX4 (sorting nexin 4) | 4 | -0.069
RAD18 (RAD18 E3 ubiquitin protein ligase) | 1 | -0.791
RAD18 (RAD18 E3 ubiquitin protein ligase) | 2 | -0.601
RAD18 (RAD18 E3 ubiquitin protein ligase) | 3 | -0.039
FZD5 (frizzled class receptor 5) | 1 | -0.179
FZD5 (frizzled class receptor 5) | 2 | 0.445
FZD5 (frizzled class receptor 5) | 3 | -0.693
FZD5 (frizzled class receptor 5) | 4 | 0.011
MMAA (metabolism of cobalamin associated A) | 1 | -0.0947
MMAA (metabolism of cobalamin associated A) | 2 | -0.12
MMAA (metabolism of cobalamin associated A) | 3 | -0.468
MMAA (metabolism of cobalamin associated A) | 4 | -0.529
CEBPG (CCAAT enhancer binding protein gamma) | 1 | 0.0986
CEBPG (CCAAT enhancer binding protein gamma) | 2 | -0.17
CEBPG (CCAAT enhancer binding protein gamma) | 3 | -0.248
CEBPG (CCAAT enhancer binding protein gamma) | 4 | 0.641
OPN1LW (opsin 1, long wave sensitive) | 1 | -0.211
OPN1LW (opsin 1, long wave sensitive) | 2 | 0.19
GAMT (guanidinoacetate N-methyltransferase) | 1 | -0.113
GAMT (guanidinoacetate N-methyltransferase) | 2 | -0.0183
GAMT (guanidinoacetate N-methyltransferase) | 3 | -0.204
GAMT (guanidinoacetate N-methyltransferase) | 4 | 0.088
IL2RA (interleukin 2 receptor subunit alpha) | 1 | -0.32
IL2RA (interleukin 2 receptor subunit alpha) | 2 | -0.108
IL2RA (interleukin 2 receptor subunit alpha) | 3 | 0.205
IL2RA (interleukin 2 receptor subunit alpha) | 4 | -0.306
